# PubChem BioAssay AID504793, Drosophila RNAi Screening Center | 2011
# Purpose: 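Whole-genome screen for parts of the DNA damage checkpoint at G2/M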 (primary screen)
# Cell system: Drosophila S2R+ cells
# Reagents: long dsRNA against Drosophila genes, about 0.25 µg dsRNA per well
# Time to read-out: 4 days of dsRNA, then 4 hours of drug before read-out
# Conditions: doxorubicin 0.5 µM for 4 hours to cause double-strand breaks, in cells also given a low, harmless dose of dsRNA against nbs to sensitise the assay
# Measured: 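Mitotic index as the number of phospho-histone H3-positive cells in each well following doxorubicin, given as raw counts without normalisation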
# Reading the numbers: mitotic cells: higher = more cells in mitosis, weaker G2 arrest
# Call rule: 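a call needs confirmation in secondary tests, with other dsRNAs and a check of mitotic timing without damage, not just a high primary count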
# Calls: active = confirmed in follow-up tests; inactive = not confirmed
# The deposit covers about 23,000 reagents; shown is a random part of those with a known target gene and a result. Over the whole deposit, 62 (0.27%) were called active. 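Calls come from follow-up tests whose scores are not deposited, so confirmed genes may have low counts here; counts are not normalised per plate.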 The raw values are shown without normalisation. A plus sign joins genes that one reagent is predicted to hit.
Target gene,dsRNA,"mitotic cells, replicate 1","mitotic cells, replicate 2",activity call
CG15651,DRSC04242,5,,inactive
CG31313,DRSC13044,12,,inactive
CG11562,DRSC00316,3,,inactive
18w,DRSC05029,3,,inactive
18w,DRSC29700,5,,inactive
sba,DRSC13643,8,,inactive
sba,DRSC17050,11,2,inactive
sba,DRSC25797,8,,inactive
CG34050 (retired record),DRSC09067,2,,inactive
CG34050 (retired record),DRSC26231,13,,inactive
Vsp37A,DRSC18794,11,,inactive
DptB,DRSC06001,2,,inactive
RunxA,DRSC20498,20,,inactive
RunxA,DRSC20524,8,,inactive
RunxA,DRSC21915,11,,inactive
RunxA,DRSC25225,7,,inactive
RunxA,DRSC27250,4,,inactive
Cpr11A,DRSC19861,12,,inactive
Cpr11A,DRSC26786,10,,inactive
Tbh,DRSC18723,16,,inactive
Tbh,DRSC26690,7,,inactive
GstO2,DRSC10691,7,,inactive
GstO2,DRSC29069,4,,inactive
CG14947,DRSC02429,7,,inactive
slam,DRSC03240,4,,inactive
CG8372,DRSC03086,9,,inactive
CG30089,DRSC06126,10,,inactive
CG30089,DRSC06267,1,,inactive
CG30089,DRSC06268,11,,inactive
NijB,DRSC09850,10,,inactive
Ccm3,DRSC15711,7,,inactive
sut2,DRSC07701,6,,inactive
CG31086 + CG31323,DRSC14902,5,,inactive
CG31086 + CG31323,DRSC24466,10,,inactive
t-Grip91,DRSC01506,11,,inactive
CG14456,DRSC11713,4,,inactive
CG14456,DRSC26740,6,,inactive
bor,DRSC16915,9,,inactive
Cyp6a8,DRSC07384,14,,inactive
CG13170,DRSC06298,8,,inactive
CG13170,DRSC25159,3,,inactive
Ndf,DRSC02775,6,,inactive
CG9445,DRSC05006,4,,inactive
CG9503,DRSC20186,11,,inactive
CG9503,DRSC21766,3,,inactive
side-VII,DRSC14578,11,,inactive
Det,DRSC14489,3,,inactive
cyp33 + CG34194,DRSC05666,5,,inactive
CG4455,DRSC01983,16,,inactive
CG4455,DRSC21684,9,,inactive
Ets97D,DRSC16665,7,,inactive
Ets97D,DRSC27682,5,,inactive
geminin,DRSC04984,7,,inactive
geminin,DRSC29794,6,,inactive
Corp,DRSC17771,3,,inactive
Corp,DRSC24622,8,,inactive
ImpE3,DRSC16716,4,,inactive
Drsl4,DRSC08034,12,,inactive
Drsl4,DRSC27159,11,,inactive
CG11350,DRSC08181,2,11,inactive
CG11350,DRSC25083,4,,inactive
CG15767,DRSC18073,11,,inactive
CG15767,DRSC29131,8,,inactive
GlyRS,DRSC10711,3,,inactive
CG14662,DRSC12248,1,,inactive
Dfd,DRSC12593,7,,inactive
Dfd,DRSC27981,8,,inactive
Rpt2,DRSC16799,73,,inactive
Rpt2,DRSC25012,46,,inactive
MICU3,DRSC13381,5,,inactive
MICU3,DRSC15613,4,,inactive
Acox57D-p,DRSC04560,5,,inactive
CG17202,DRSC23073,12,,inactive
CG7483,DRSC16249,6,,inactive
CG7483,DRSC22432,16,,inactive
CG7483,DRSC26402,3,,inactive

Part of the list above, set out differently.
Target gene	dsRNA	mitotic cells, replicate 1	mitotic cells, replicate 2	activity call
CG31086 + CG31323	DRSC24466	10		inactive
t-Grip91	DRSC01506	11		inactive
CG14456	DRSC11713	4		inactive
CG14456	DRSC26740	6		inactive
bor	DRSC16915	9		inactive
Cyp6a8	DRSC07384	14		inactive
CG13170	DRSC06298	8		inactive
CG13170	DRSC25159	3		inactive
